Results taken from publication PMC7264223, “Tetrameric architecture of an active phenol-bound form of the AAA^+ transcriptional regulator DmpR” (Nature Communications, 2020).
The exact form of at least one protein or probe is not confirmed. Tags and fusion partners may be left off the protein sequences shown.

Target: T1, DmpR WT (CapR) (Pseudomonas putida KCTC 1452) (UniProt Q7WSM9)
T1 sequence (looked up): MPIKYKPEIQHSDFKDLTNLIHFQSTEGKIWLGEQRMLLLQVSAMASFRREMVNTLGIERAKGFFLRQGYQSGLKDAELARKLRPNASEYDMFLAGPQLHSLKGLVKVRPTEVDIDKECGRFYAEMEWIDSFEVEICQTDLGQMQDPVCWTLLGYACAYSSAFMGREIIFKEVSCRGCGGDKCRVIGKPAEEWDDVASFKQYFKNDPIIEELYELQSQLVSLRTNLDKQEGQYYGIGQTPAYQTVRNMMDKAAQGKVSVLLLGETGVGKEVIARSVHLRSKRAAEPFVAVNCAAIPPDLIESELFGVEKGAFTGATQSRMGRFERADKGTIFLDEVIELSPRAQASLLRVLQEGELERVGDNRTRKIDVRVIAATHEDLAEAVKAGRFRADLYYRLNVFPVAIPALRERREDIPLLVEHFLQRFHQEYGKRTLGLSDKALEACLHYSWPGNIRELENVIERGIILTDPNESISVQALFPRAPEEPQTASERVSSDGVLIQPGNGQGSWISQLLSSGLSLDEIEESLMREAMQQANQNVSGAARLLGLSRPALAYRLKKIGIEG
Experiment: ITC
Settings: ITC at 25 C (MicroCal Auto-iTC200), DmpR 10 or 40 uM in cell, DNA 100 uM injectant, ITC buffer not stated, recombinant protein, residues 1-563, protein details: N-terminal 6xHis

For “GCCATAAGCATTTGCTCAAGCGGCCTTGGGCAATTGATCAAATGCTTAAAAAGT (double strand) [cognate UAS DNA (54 bp, two UASs)]”, the Kd (no phenol) was 0.476 µM and the Kd (phenol present) was 0.387 µM.
